Among the data in article PMC9023482 are binding values, retold here.

Amino acid sequences for entries named in this document (tags omitted). Residues count along the entry.
UniProt P08581, residues 25-1390: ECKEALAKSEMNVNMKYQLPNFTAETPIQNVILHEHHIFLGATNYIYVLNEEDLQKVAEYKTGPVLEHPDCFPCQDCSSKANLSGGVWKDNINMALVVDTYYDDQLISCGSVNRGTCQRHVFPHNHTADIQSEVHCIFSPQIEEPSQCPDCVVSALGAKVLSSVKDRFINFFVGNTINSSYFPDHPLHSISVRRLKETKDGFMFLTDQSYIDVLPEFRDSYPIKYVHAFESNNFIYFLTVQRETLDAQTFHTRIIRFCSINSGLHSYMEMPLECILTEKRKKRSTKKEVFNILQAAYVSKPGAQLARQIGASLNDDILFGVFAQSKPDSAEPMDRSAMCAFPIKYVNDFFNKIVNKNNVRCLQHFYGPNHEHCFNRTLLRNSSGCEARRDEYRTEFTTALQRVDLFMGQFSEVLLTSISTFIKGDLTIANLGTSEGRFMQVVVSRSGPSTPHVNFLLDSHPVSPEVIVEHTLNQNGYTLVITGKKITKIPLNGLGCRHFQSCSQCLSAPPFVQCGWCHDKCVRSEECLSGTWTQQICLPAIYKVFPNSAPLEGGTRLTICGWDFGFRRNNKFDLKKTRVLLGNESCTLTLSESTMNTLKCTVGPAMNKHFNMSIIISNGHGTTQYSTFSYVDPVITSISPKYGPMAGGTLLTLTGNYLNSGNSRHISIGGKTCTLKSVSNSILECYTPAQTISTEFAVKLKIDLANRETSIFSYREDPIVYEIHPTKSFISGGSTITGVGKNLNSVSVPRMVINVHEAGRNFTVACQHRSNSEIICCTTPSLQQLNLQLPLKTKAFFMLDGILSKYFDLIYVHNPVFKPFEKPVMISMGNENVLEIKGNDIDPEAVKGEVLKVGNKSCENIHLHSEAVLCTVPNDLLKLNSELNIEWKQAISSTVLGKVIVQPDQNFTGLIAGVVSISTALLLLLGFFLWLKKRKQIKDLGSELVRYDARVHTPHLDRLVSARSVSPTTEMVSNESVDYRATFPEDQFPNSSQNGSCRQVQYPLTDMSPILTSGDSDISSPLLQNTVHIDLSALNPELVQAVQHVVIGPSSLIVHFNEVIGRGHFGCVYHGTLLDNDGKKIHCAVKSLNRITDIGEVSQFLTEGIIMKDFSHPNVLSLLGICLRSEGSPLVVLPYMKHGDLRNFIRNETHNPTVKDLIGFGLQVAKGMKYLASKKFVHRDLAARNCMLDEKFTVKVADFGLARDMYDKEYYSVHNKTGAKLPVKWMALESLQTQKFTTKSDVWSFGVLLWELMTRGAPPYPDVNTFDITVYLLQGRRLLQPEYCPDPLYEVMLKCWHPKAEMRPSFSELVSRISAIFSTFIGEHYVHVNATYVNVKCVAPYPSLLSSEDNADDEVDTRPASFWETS

The target of the assay is c-Met (Mesenchymal-epithelial transition factor) (human (endogenous in human RCC cell lines)) (UniProt P08581). Briefly: co-IP; whole-cell lysate (RIPA buffer with protease and phosphatase inhibitors) incubated with the detection antibody overnight at 4 °C, then 50 µl protein A/G beads for 6 h; cells and precipitating antibody of Figure S2 not told.

No constants are given. Whether binding was seen depends on the method and setting. Binding seen in cells or lysates may run through a third protein.

B1: ORP5 (Oxysterol-binding protein-related protein 5) (protein, UniProt Q9H0X9 1-879)
chain: MKEEAFLRRRFSLCPPSSTPQKVDPRKLTRNLLLSGDNELYPLSPGKDMEPNGPSLPRDEGPPTPSSATKVPPAEYRLCNGSDKECVSPTARVTKKETLKAQKENYRQEKKRATRQLLSALTDPSVVIMADSLKIRGTLKSWTKLWCVLKPGVLLIYKTPKVGQWVGTVLLHCCELIERPSKKDGFCFKLFHPLDQSVWAVKGPKGESVGSITQPLPSSYLIFRAASESDGRCWLDALELALRCSSLLRLGTCKPGRDGEPGTSPDASPSSLCGLPASATVHPDQDLFPLNGSSLENDAFSDKSERENPEESDTETQDHSRKTESGSDQSETPGAPVRRGTTYVEQVQEELGELGEASQVETVSEENKSLMWTLLKQLRPGMDLSRVVLPTFVLEPRSFLNKLSDYYYHADLLSRAAVEEDAYSRMKLVLRWYLSGFYKKPKGIKKPYNPILGETFRCCWFHPQTDSRTFYIAEQVSHHPPVSAFHVSNRKDGFCISGSITAKSRFYGNSLSALLDGKATLTFLNRAEDYTLTMPYAHCKGILYGTMTLELGGKVTIECAKNNFQAQLEFKLKPFFGGSTSINQISGKITSGEEVLASLSGHWDRDVFIKEEGSGSSALFWTPSGEVRRQRLRQHTVPLEEQTELESERLWQHVTRAISKGDQHRATQEKFALEEAQRQRARERQESLMPWKPQLFHLDPITQEWHYRYEDHSPWDPLKDIAQFEQDGILRTLQQEAVARQTTFLGSPGPRHERSGPDQRLRKASDQPSGHSQATESSGSTPESCPELSDEEQDGDFVPGGESPCPRCRKEARRLQALHEAILSIREAQQELHRHLSAMLSSTARAAQAPTPGLLQSPRSWFLLCVFLACQLFINHILK
B1: the binding result was “no binding”.
